Assay [1] has as its target T1, GFP-ULK1 (Unc-51-like kinase 1, full-length) (human) (UniProt O75385).
T1 sequence: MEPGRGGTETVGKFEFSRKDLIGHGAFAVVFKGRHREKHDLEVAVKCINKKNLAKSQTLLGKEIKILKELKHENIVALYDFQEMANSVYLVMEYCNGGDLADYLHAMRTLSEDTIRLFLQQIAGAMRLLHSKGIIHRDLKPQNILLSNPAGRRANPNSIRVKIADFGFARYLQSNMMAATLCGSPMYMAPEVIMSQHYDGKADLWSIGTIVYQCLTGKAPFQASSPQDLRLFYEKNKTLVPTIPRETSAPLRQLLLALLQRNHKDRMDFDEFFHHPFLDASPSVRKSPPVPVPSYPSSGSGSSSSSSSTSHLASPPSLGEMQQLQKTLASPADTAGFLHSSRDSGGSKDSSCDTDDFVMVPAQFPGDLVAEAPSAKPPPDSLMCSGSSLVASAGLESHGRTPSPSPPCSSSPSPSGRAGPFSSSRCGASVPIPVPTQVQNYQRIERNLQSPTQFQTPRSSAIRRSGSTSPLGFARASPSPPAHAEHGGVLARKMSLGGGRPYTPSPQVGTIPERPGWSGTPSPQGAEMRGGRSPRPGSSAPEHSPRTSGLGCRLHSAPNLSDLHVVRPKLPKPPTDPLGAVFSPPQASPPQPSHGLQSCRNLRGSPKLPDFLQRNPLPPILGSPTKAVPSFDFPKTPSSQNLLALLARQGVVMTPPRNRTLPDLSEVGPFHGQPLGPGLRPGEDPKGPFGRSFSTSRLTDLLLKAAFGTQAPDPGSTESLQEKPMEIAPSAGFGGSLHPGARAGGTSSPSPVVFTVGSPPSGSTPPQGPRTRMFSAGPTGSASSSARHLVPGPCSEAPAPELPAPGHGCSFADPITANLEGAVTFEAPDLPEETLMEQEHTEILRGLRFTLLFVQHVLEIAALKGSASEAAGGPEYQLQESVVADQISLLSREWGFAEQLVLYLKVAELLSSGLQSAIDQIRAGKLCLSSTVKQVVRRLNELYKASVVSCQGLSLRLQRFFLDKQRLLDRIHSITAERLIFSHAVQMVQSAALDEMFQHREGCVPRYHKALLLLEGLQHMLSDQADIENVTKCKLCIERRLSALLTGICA
Kind of assay: co-IP; GFP-IP with GFP-Trap_A beads from S100 cytoplasm extracts (Flp-In T-REx 293 induced with doxycycline, with or without 1 h EBSS starvation; HEK293T stably or transiently transfected), 4°C, at least 1.5 h, western blotting.

Protein sequences, listed by entry. Tags and fused reporters are not part of them.
UniProt O14744: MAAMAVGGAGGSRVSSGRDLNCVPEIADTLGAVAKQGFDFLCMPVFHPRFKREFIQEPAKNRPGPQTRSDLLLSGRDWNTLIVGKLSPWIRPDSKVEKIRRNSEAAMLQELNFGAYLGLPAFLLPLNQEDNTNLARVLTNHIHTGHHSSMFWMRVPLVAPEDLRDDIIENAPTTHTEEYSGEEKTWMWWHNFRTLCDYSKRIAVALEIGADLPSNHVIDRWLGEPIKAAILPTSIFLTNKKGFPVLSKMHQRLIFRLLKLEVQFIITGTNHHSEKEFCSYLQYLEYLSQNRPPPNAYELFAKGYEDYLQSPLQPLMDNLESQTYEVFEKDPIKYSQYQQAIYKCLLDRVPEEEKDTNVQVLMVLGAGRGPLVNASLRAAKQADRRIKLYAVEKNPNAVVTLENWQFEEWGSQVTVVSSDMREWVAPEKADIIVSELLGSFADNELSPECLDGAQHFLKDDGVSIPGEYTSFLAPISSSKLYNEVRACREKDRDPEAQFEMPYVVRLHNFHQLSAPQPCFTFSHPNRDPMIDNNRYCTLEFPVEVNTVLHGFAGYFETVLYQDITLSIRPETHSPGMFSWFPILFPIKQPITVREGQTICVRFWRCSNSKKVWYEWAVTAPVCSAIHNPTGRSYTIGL
UniProt Q16637: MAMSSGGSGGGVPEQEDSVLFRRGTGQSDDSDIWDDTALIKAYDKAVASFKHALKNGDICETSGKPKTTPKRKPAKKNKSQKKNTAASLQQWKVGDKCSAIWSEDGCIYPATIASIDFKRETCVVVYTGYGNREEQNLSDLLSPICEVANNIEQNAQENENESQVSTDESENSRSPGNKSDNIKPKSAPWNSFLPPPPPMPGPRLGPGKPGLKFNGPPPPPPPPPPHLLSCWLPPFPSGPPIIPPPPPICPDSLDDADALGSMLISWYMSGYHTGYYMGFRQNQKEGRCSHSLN
UniProt P62318: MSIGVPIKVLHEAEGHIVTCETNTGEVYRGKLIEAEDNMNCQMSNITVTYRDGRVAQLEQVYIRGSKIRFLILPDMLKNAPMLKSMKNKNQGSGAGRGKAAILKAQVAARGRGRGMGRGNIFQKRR
UniProt Q9BQA1: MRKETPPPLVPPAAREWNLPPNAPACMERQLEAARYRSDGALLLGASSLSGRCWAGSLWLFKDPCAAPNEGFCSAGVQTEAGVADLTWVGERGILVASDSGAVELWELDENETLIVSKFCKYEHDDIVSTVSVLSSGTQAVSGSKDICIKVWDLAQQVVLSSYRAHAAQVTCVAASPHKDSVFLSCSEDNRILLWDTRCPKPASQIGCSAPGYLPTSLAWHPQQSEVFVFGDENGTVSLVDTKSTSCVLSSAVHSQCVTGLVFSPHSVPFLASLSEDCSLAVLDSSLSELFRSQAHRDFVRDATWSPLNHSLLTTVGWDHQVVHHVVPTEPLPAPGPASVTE

Assay [2] addresses GFP-pICln wild type (human) (UniProt P54105). Description: co-IP; GFP tagged pICln wild type and phosphomutants; details in SD Figure 3A (not shown).
The target in assay [3] is GFP-pICln S193, 195, 197D (human) (UniProt P54105). Described as above.
Assay [4] has as its target GFP-pICln S193, 195, 197A (human) (UniProt P54105). The assay is described as above.
Assay [5] addresses T2, ULK1, endogenous (human (endogenous in HEK293T)) (UniProt O75385).
T2 sequence: T1 sequence
Description: co-IP; endogenous ULK1 immunoprecipitated (protein-G-sepharose coated with 1 μg ULK1 antibody, 4°C overnight) from Superdex 200 increase fractions of HEK293T S100 extract; blot for pICln.

Assay [6] addresses GST-pICln wild type (human) (UniProt P54105). Kind of assay: pull-down; GST-pICln (wt, phosphomutants or pre-phosphorylated by ULK1) on glutathione sepharose 4B with single in vitro translated 35S-labelled Sm proteins; 300 mM NaCl, 50 mM Tris/HCl pH 7.5, 1 mM EGTA, 1 mM EDTA, 1 mM DTT, 0.01% Igepal; 1.5 h at 4°C, two washes, autoradiography; only the target purified.
In assay [7] the target is GST-pICln S193, 195, 197D (phospho-mimicking aspartate mutant) (human) (UniProt P54105). The description is as above.
Assay [8] has as its target GST-pICln S193, 195, 197A (phospho-inactivating alanine mutant) (human) (UniProt P54105). The description is as above.

Results are given in words; binding and its absence hold for the method and conditions named. In cells and extracts the contact can be indirect. Some binding calls cover weakened binding; strength is not graded here. For some of these results: Where a sequence is shown, tags or fusion partners need not be part of it.

Take “Protein arginine N-methyltransferase 5 (PRMT5), endogenous (from UniProt O14744 1-637) (enzyme)”: the binding result in assay [1] is given as “binds”.
Take “SMN (survival motor neuron protein), endogenous (from UniProt Q16637 1-294)”: the binding entry in assay [2], in assay [3] and in assay [4] was “binds” throughout.
Take “chloride conductance regulatory protein (pICln), endogenous (from UniProt P54105 1-237)”: the binding result in assay [1] and in assay [5] was “binds” in each case.
For the substance “SmD3, in vitro translated (from UniProt P62318 1-126)”, the binding result in assay [6], in assay [7] and in assay [8] was “binds” throughout.
Take “methylosome protein 50 (MEP50/WD45), endogenous (from UniProt Q9BQA1 1-342)”: the binding result in assay [1] is listed as “binds”.
